Consider one molecule from patent publication US20120128626A1 (ALDERBIO, published 2012).

These are yes or no findings as the source states them, for the method shown.

This experiment has as its target T1, Dog IL-6 (dog) (UniProt P41323).
T1 sequence (looked up): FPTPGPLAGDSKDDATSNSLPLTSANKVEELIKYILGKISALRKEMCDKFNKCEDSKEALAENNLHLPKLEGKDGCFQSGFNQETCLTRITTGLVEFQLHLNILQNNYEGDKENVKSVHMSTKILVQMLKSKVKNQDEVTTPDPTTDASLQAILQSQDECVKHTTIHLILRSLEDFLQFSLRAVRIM
The experiment can be described thus: condition: Below Limit of Quantitation (value not given); surface plasmon resonance, 25 C. A general note: Surface plasmon resonance follows binding to a sensor surface in real time, without labels.

B1: Ab1 (antibody, human IgG1, kappa, N297A, V domains shown)
VH: EVQLVESGGGLVQPGGSLRLSCAASGFSLSNYYVTWVRQAPGKGLEWVGIIYGSDETAYATSAIGRFTISRDNSKNTLYLQMNSLRAEDTAVYYCARDDSSDWDAKFNLWGQGTLVTVSS
VL: AIQMTQSPSSLSASVGDRVTITCQASQSINNELSWYQQKPGKAPKLLIYRASTLASGVPSRFSGSGSGTDFTLTISSLQPDDFATYYCQQGYSLRNIDNAFGGGTKVEIKR
With B1, the binding entry was “no binding”.
